# Structures can show the parent of a compound that is named as a salt. Where two headings read alike, the source gives them in different places. Among all 3,300 compounds or so, about 60 (2%) showed an effect of 50% or more. The list shows a part of the results.
# Tested on: HCoV-OC43
# Set-up: species or system RD; HTS, protection from HCoV-OC43 induced cell death, luminescent cell viability (CellCounting-Lite 2.0), inhibition rate
# Settings: 24 h post infection, 1 h compound pre-incubation, 10 µM, inhibitor
Compound,OC43 Inhibition rate [%],"OC43 Inhibition rate (OC43 Inhibition rate, 24 h) [%]"
C=C(C)[C@@H]1CC[C@]2(COC(C)=O)CC[C@]3(C)[C@H](CC[C@@H]4[C@@]5(C)CC[C@H](OC(C)=O)C(C)(C)[C@@H]5CC[C@]43C)[C@@H]12 [Betulin diacetate],-0.4,
"O=c1c(O)c(-c2ccccc2)oc2ccc(O)cc12 [3,6-Dihydroxyflavone]",0.4,
COc1cc(-c2oc3cc(OC)c(OC)c(O)c3c(=O)c2OC)ccc1O [Chrysosplenetin],47.1,
C[C@@H]1O[C@@H](OC[C@H]2O[C@@H](Oc3c(-c4ccc(O)cc4)oc4cc(O)cc(O)c4c3=O)[C@H](O[C@@H]3O[C@@H](C)[C@H](O)[C@@H](O)[C@H]3O)[C@@H](O)[C@H]2O)[C@H](O)[C@H](O)[C@H]1O [Mauritianin],-0.4,
CC(C)C1=Cc2ccc3c(c2C(=O)C1=O)CCCC3(C)C [Miltirone],1.1,
"COc1cc(OC)c2c(=O)cc(-c3cc(OC)c(OC)c(OC)c3)oc2c1 [3',4',5',5,7-Pentamethoxyflavone]",32,
CCC(=O)CO [1-Hydroxy-2-butanone],-0.4,
CC(C)=CC(=O)NCC(=O)O [3-Methylcrotonylglycine],-1,
Nc1ccn([C@@H]2O[C@H](COP(=O)(O)OP(=O)(O)O)[C@@H](O)[C@H]2O)c(=O)n1 [Cytidine 5'-diphosphate (trisodium salt)],3.6,
O=C(OCC1=C[C@@H](O)[C@@H]2C=CO[C@@H](O[C@@H]3O[C@H](CO)[C@@H](O)[C@H](O)[C@H]3O)[C@H]12)c1ccc(O)cc1 [Agnuside],-0.1,
"CC1=COC(=O)[C@H]2[C@@H]1CC[C@@H]2C [4aα,7α,7aα-Nepetalactone]",0.2,
CC(=O)N[C@@H](Cc1ccc(O)cc1)C(=O)O [N-Acetyl-L-tyrosine],1,
OC[C@@H](O)[C@@H](O)[C@H](O)[C@H](O)CO [D-Mannitol],-8.1,
C=CCc1ccc(O)c(OC)c1 [Eugenol],0,
CO[C@@H]1[C@H](O)[C@@H](CO)O[C@H]1n1ccc(=O)[nH]c1=O [2′-O-Methyluridine],-1.2,
CNc1ncnc2c1ncn2[C@@H]1O[C@H](CO)[C@@H](O)[C@H]1O [N6-Methyladenosine],1.8,
O=C(O)C1=C[C@@H](O)[C@@H](O)[C@H](O)C1 [Shikimic acid],-4.9,
Cc1ccc(C=O)s1 [5-Methyl-2-thiophenecarboxaldehyde],0,
O=C(O)[C@H]1CC[C@H](O)CC1 [trans-4-Hydroxycyclohexanecarboxylic acid],0.3,
C[C@H]1CC[C@@]2(OC1)O[C@H]1C[C@H]3[C@@H]4CC=C5C[C@@H](O[C@@H]6O[C@@H](C)[C@H](O)[C@@H](O)[C@H]6O)C[C@@H](O[C@@H]6O[C@H](C)[C@H](O)[C@H](O)[C@H]6O)[C@]5(C)[C@H]4CC[C@]3(C)[C@H]1[C@@H]2C [Liriopesides B],13.7,
COC(=O)C[C@H]1[C@]2(C)C3=C(C)[C@H](c4ccoc4)C[C@H]3O[C@@H]2[C@@H]2OC(=O)[C@]3(C)C=CC(=O)[C@@]1(C)[C@@H]23 [Nimbolide],5.8,
C=C(C)[C@@H]1CC[C@]2(C(=O)O)CC[C@]3(C)[C@H](CC[C@@H]4[C@@]5(C)CC[C@H](O)C(C)(C)[C@@H]5CC[C@]43C)[C@@H]12 [Betulinic acid],-18.3,
O=C(/C=C/c1ccc(O)c(O)c1)c1ccc(O[C@@H]2O[C@H](CO)[C@@H](O)[C@H](O)[C@H]2O)c(O)c1O [Marein],0.4,
O=c1ccc2cc3ccoc3cc2o1 [Psoralen],1.3,
Oc1ccc2c(c1)OC[C@]1(O)Cc3cc(O)c(O)cc3[C@H]21 [Brazilin],26.3,
C[C@H]1O[C@@H](O[C@H]2CC[C@@]3(C)[C@@H](CC[C@]4(C)[C@@H]3C=CC3=C5CC(C)(C)CC[C@]5(CO)[C@@H](O)C[C@]34C)[C@]2(C)CO)[C@H](O[C@@H]2O[C@H](CO)[C@@H](O)[C@H](O)[C@H]2O)[C@@H](O[C@@H]2O[C@H](CO)[C@@H](O)[C@H](O)[C@H]2O)[C@H]1O [Buddlejasaponin IVb],0.5,
NCC(O)c1ccccc1 (centres unmarked) [2-Amino-1-phenylethanol],0,

# Taken from above.
# In OC43 Inhibition rate [%], `O=c1ccc2cc3ccoc3cc2o1` [Psoralen] has 1.3
# In OC43 Inhibition rate [%], `C=CCc1ccc(O)c(OC)c1` [Eugenol] has 0

# Later entries.

Compound,OC43 Inhibition rate [%],"OC43 Inhibition rate (OC43 Inhibition rate, 24 h) [%]"
CC1(C)C[C@@H](O)[C@]2(C)CC[C@]3(C)C(=CC[C@@H]4[C@@]5(C)CC[C@H](O)[C@](C)(CO)[C@@H]5CC[C@]43C)[C@@H]2C1 [Soyasapogenol B],-1.1,
O=C1CCC[C@@H]2[C@H]3CCCN4CCC[C@@H](CN12)[C@@H]34 [Matrine],-0.1,
CCCCCC1C(=O)CCC1CC(=O)OC (centres unmarked) [Methyl dihydrojasmonate],0.1,
COC(=O)[C@H]1O[C@@H](O[C@H]2CC[C@]3(C)[C@H]4CC=C5[C@@H]6CC(C)(C)CC[C@]6(C(=O)O)CC[C@@]5(C)[C@]4(C)CC[C@H]3[C@]2(C)C=O)[C@H](O)[C@@H](O)[C@@H]1O [Gypsogenin-3-O-glucuronide],-0.6,
CC(=O)N[C@@H](CC(C)C)C(=O)N[C@@H](CC(C)C)C(=O)N[C@H](C=O)CCCNC(=N)N [Leupeptin (hemisulfate)],23.3,
C[C@@H]1O[C@@H](O[C@H]2[C@H](O[C@H]3[C@H](O[C@H]4CC[C@]5(C)[C@H]6CC=C7[C@@H]8CC(C)(C)CC[C@]8(C(=O)O)CC[C@@]7(C)[C@]6(C)CC[C@H]5C4(C)C)OC[C@H](O)[C@@H]3O)O[C@H](CO)[C@@H](O)[C@@H]2O)[C@H](O)[C@H](O)[C@H]1O [Raddeanin A],-7.3,
C[C@@H]1O[C@@H](O[C@H]2[C@H](O)[C@@H](O)[C@H](OC[C@H]3O[C@@H](OC(=O)[C@]45CCC(C)(C)C[C@H]4C4=CC[C@@H]6[C@@]7(C)CC[C@H](O[C@@H]8OC[C@H](O)[C@H](O)[C@H]8O)[C@@](C)(CO)[C@@H]7CC[C@@]6(C)[C@]4(C)CC5)[C@H](O)[C@@H](O)[C@@H]3O)O[C@@H]2CO)[C@H](O)[C@H](O)[C@H]1O [Cauloside D],,-0.4
CC(C)=CCC[C@](C)(O)[C@H]1CC[C@]2(C)[C@@H]1[C@H](O)C[C@@H]1[C@@]3(C)CC[C@H](O[C@@H]4O[C@H](CO)[C@@H](O)[C@H](O)[C@H]4O[C@@H]4O[C@H](CO)[C@@H](O)[C@H](O)[C@H]4O)C(C)(C)[C@@H]3CC[C@]12C [20(S)-Ginsenoside Rg3],7.6,
OCCc1c[nH]c2ccc(O)cc12 [5-Hydroxytryptophol],2,
COc1ccc(C2COc3cc(O[C@@H]4O[C@H](CO)[C@@H](O)[C@H](O)[C@H]4O)ccc3C2)c(O)c1OC (some centres unmarked) [Isomucronulatol 7-O-glucoside],11.3,
O=c1cc(-c2ccc(O)cc2)oc2cc(O[C@@H]3O[C@H](CO)[C@@H](O)[C@H](O)[C@H]3O[C@@H]3OC[C@](O)(CO)[C@H]3O)cc(O)c12 [Apiin],-0.4,
C=C1[C@@H]2CC[C@@H]3[C@](C2)(C(=O)[C@@H](O)[C@@H]2C(C)(C)[C@H]4CC(=O)[C@@]32CO4)[C@@H]1OC(C)=O [Maoecrystal A],-0.4,
C=C1C(=O)O[C@H]2[C@H]1CC[C@]1(C)O[C@@]13CC[C@@](C)(O)[C@H]23 [Epoxymicheliolide],0.1,
CN(C)[C@@H]1C(O)=C(C(N)=O)C(=O)[C@@]2(O)C(O)=C3C(=O)c4c(O)cccc4[C@@](C)(O)[C@H]3C[C@@H]12 [Tetracycline (hydrochloride)],41.7,
C[C@H](CCC(=O)O)[C@H]1CC[C@H]2[C@@H]3CC[C@@H]4C[C@H](O)CC[C@]4(C)[C@H]3C[C@H](O)[C@]12C [Deoxycholic acid sodium salt],,1.2
O=C(O)CCCCCCC[C@@H](O)[C@@H](O)CCCCCCO [Aleuritic acid],0.2,
OC1OC[C@@H](O)[C@@H](O)[C@@H]1O (stereo partly drawn) [D-Arabinose],,-0.1
C[C@]12CCC(=O)C=C1CC[C@@H]1[C@@H]2C(=O)C[C@@]2(C)[C@H]1CC[C@]2(O)C(=O)CO [Cortisone],0.8,
CC/C=C\C/C=C\C/C=C\C/C=C\C/C=C\CCCC(=O)O [Eicosapentaenoic Acid],5.6,
CC(=O)[C@]1(O)Cc2c(O)c3c(c(O)c2[C@@H](O[C@H]2C[C@H](N)[C@H](O)[C@H](C)O2)C1)C(=O)c1c(O)cccc1C3=O [Carubicin (hydrochloride)],-5.3,
N[C@H](CC(=O)O)C(=O)O [(-)-Aspartic acid],-6.5,
COc1cc2oc3cc(O)c(OC)c(CC=C(C)C)c3c(=O)c2c(O)c1CC=C(C)C [beta-Mangostin],-0.3,
COc1cc(O)c2c(=O)cc(-c3ccc(OC)c(-c4c(O)cc(O)c5c(=O)cc(-c6ccc(O)cc6)oc45)c3)oc2c1 [Ginkgetin],-5.8,
COc1cc2c(cc1OC)-c1c(C)c3ccc(OC)c(OC)c3c[n+]1CC2 [Dehydrocorydaline (nitrate)],,0
CC(C)=CCc1cc2ccc(=O)oc2cc1O [Demethylsuberosin],-0.9,
C/C=C1/CN2[C@H]3Cc4c([nH]c5ccccc45)[C@]2(O)C[C@@H]1[C@@]3(CO)C(=O)OC [16-Epivoacarpine],0.3,

# — PMC12431657, “Discovery and mechanistic insights of dibenzoylmethane as a broad spectrum inhibitor of coronavirus” (PLOS Pathogens, 2025)
